# The list shows a part of the results.
# Amino acid sequences for entries named in this document (tags omitted). A change or cut given only in a name is not applied to a line headed by its entry.
# UniProt P63165, whole entry, looked up: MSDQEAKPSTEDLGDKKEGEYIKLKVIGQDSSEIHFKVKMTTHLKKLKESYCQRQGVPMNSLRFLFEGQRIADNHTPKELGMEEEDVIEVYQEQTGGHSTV
# UniProt P53597: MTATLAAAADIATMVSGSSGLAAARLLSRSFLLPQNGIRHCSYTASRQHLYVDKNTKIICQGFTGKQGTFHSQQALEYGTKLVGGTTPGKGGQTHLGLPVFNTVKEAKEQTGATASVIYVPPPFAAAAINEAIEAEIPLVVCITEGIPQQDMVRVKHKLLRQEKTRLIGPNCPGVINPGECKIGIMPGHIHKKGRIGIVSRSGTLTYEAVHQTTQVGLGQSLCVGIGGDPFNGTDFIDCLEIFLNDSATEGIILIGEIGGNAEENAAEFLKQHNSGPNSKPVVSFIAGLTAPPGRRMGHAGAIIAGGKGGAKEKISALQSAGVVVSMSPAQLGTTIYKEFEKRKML
# UniProt Q4KMP7: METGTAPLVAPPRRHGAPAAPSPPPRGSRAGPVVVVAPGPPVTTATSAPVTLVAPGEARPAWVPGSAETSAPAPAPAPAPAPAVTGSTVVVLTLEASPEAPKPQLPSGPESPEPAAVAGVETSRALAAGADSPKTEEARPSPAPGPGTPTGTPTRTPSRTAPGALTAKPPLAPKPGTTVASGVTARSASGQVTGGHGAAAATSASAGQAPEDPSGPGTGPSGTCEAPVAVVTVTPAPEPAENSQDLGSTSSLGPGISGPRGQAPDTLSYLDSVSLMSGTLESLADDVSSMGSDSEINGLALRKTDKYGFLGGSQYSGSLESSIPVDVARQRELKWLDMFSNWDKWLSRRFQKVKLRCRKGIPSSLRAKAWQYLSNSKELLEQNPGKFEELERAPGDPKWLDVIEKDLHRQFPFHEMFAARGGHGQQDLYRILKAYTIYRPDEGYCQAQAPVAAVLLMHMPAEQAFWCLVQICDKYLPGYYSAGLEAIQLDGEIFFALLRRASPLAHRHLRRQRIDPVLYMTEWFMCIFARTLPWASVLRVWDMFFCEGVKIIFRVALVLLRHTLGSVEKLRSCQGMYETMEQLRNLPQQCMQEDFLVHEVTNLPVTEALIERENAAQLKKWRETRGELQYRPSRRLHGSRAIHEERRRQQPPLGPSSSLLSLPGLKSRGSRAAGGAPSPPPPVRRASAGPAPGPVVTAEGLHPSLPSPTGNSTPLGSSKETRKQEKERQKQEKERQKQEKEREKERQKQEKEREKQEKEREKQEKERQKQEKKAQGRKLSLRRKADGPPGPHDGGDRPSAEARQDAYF
# UniProt Q9BW92: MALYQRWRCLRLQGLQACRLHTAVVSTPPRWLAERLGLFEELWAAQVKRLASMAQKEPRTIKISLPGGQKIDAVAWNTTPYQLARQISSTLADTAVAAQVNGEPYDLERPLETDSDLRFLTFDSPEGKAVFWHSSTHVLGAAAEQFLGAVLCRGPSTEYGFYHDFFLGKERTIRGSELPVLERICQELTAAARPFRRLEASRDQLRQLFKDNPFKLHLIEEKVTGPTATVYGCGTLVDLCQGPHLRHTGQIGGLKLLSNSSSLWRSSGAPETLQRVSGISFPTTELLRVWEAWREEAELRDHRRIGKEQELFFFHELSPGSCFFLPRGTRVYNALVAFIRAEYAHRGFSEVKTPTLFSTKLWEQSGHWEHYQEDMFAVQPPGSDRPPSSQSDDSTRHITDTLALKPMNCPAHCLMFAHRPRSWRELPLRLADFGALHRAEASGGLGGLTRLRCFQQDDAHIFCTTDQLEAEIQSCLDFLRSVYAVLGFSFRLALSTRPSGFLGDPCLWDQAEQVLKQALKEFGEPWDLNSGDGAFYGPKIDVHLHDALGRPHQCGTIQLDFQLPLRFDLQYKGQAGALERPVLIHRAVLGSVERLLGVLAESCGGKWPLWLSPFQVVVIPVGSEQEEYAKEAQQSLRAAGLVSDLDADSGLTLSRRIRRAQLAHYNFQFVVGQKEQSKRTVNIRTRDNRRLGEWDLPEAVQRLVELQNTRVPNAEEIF
# UniProt O95359: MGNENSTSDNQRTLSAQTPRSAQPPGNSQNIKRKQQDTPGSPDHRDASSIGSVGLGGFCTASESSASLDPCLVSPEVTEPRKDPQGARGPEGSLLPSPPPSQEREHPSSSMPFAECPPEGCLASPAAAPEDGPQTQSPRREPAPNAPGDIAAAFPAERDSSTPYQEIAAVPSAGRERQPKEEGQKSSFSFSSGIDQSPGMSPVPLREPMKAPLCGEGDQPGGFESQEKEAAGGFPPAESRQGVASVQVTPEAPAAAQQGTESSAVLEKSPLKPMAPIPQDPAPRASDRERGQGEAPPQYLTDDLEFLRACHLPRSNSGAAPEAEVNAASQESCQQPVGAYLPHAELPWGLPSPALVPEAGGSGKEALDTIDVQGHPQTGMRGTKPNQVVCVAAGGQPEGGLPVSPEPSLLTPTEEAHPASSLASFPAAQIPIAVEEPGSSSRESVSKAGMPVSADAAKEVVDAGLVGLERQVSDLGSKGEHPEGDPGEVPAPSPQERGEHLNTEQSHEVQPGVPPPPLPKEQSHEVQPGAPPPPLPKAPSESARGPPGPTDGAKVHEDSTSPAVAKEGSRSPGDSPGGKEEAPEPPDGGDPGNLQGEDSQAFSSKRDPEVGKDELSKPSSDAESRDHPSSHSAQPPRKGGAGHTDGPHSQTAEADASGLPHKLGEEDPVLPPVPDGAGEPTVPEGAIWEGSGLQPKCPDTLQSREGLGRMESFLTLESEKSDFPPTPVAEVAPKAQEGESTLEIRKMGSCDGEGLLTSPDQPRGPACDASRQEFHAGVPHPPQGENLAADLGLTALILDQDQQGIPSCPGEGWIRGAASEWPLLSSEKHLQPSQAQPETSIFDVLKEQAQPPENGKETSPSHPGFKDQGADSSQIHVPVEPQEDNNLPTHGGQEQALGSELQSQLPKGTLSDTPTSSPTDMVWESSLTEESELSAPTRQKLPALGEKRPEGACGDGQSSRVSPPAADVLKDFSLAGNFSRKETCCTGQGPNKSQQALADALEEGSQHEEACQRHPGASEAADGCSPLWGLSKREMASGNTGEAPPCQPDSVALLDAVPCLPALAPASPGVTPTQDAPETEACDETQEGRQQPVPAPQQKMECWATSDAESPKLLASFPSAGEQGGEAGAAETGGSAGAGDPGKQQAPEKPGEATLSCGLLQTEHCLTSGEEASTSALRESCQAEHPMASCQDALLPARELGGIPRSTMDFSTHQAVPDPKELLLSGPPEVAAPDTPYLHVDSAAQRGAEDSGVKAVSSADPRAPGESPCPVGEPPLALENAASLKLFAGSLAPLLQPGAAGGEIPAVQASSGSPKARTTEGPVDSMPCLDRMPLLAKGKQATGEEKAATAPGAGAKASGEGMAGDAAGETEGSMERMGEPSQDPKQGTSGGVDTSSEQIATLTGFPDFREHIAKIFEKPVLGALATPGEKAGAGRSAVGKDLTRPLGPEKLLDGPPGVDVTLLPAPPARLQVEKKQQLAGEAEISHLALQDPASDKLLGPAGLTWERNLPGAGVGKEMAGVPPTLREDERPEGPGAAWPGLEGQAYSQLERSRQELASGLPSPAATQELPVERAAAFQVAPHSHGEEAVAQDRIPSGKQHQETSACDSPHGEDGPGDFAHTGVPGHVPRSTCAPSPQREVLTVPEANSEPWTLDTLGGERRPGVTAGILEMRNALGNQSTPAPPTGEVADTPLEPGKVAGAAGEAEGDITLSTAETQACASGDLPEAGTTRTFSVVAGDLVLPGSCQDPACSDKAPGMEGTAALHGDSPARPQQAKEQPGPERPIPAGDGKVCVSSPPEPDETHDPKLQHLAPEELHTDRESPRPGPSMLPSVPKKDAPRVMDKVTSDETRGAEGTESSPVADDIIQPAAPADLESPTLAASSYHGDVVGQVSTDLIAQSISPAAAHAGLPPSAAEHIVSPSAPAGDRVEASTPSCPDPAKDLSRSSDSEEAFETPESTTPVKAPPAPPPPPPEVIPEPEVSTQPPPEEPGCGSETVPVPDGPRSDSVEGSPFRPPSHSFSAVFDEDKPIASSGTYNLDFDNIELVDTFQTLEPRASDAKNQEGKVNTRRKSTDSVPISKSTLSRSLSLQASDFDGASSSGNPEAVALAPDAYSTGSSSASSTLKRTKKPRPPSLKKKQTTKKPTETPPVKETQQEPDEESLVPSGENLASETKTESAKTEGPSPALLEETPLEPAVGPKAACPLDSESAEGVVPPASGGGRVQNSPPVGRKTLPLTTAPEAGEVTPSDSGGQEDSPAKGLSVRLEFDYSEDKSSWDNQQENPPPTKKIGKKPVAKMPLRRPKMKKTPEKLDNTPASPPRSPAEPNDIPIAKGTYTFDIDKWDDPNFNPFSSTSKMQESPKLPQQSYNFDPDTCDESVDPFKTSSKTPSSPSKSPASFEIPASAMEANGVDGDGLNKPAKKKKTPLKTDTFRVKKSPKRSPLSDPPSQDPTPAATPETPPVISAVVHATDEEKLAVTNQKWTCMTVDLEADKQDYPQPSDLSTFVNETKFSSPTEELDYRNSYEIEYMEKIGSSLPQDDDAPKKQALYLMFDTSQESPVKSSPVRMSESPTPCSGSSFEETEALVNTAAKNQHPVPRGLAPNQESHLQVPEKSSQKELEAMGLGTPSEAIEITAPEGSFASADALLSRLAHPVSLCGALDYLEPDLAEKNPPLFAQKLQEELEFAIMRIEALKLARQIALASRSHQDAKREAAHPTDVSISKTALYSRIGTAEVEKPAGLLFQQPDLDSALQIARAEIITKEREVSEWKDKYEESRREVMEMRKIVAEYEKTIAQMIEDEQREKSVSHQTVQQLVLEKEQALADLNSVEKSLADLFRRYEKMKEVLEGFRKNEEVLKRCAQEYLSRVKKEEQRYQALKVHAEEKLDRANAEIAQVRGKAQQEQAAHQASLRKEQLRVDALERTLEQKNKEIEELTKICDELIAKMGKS
# UniProt Q13043: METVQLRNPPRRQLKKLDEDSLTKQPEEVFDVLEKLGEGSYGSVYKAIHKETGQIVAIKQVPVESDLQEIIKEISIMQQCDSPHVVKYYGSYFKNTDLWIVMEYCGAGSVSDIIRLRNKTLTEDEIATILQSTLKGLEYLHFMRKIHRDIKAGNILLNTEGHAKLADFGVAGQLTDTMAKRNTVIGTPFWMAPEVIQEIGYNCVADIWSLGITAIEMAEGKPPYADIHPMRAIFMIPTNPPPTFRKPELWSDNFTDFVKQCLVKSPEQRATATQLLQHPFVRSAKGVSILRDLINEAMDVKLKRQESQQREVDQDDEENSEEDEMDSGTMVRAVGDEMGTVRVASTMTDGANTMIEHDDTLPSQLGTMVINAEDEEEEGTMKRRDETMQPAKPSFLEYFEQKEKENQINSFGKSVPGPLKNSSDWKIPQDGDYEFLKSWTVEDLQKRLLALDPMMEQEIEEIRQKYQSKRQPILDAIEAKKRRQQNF
# UniProt P61956, whole entry, looked up: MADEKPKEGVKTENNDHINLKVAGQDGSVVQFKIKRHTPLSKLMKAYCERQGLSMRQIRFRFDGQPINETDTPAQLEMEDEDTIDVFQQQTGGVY
# UniProt Q92844: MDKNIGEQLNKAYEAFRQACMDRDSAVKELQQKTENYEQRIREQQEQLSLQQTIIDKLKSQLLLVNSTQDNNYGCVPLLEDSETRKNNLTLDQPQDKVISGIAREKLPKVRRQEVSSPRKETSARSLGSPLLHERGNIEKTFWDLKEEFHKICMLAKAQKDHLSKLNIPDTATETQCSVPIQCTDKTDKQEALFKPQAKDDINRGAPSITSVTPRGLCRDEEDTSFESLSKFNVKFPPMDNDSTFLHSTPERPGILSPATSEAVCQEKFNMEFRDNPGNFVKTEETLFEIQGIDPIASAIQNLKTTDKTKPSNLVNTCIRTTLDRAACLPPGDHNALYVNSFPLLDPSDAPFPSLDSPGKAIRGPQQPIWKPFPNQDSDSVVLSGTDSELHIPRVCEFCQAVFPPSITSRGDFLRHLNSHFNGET
# UniProt Q8IWZ8: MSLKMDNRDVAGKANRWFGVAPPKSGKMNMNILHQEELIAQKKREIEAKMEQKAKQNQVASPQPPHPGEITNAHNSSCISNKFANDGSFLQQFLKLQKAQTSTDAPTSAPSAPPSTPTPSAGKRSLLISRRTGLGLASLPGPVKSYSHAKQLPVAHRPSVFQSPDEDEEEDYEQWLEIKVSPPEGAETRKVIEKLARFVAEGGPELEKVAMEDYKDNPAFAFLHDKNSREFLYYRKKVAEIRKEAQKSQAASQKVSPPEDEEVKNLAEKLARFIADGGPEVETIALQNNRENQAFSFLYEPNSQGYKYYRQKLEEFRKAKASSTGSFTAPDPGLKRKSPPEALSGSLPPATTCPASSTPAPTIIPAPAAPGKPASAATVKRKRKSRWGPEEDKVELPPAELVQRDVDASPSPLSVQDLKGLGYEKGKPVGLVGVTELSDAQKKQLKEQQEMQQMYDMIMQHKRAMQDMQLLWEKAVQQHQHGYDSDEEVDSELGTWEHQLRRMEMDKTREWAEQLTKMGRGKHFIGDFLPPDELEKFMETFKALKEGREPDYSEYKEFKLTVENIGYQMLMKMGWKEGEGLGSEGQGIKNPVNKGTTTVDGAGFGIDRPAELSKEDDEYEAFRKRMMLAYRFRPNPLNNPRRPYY
# Assays:
# Test in all cases: log2 fold change, soluble protein after heating vs DMSO (PISA); higher = thermal stabilisation; K562 cells, 10 uM, 30 min; active = over 0.2 and 3.5 SD of the protein, either way, in both replicates (recomputed)
# [1] = compound: CC1=C(C=C(C=C1)NC(=O)C2=CC(=CC=C2)C(C)(C)C#N)NC3=CC4=C(C=C3)N=CN(C4=O)C
# Method in brief: (§1)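 Thermal stability values are relative to control samples and come from duplicates. They are expressed as log2 fold changes. For measurement, K562 cells (2×10^6 cells/mL) received 10 μM compound for 30 min, and aliquots were heated for 3 min over 48°C-58°C, pooled, and extracted at 4°C in PBS with 0.5% NP-40. Soluble protein, the supernatant after 21,000xg for 90 min, was quantified by TMTpro 16plex LC-MS/MS with equalised channel sums.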
# [2] = compound: CC1=C(C=C(C=C1)NC(=O)C2=CC(=CC=C2)N(C)C)NC(=O)C3=CC=C(C=C3)O
# Method in brief: as §1
# [3] = compound: CC1=CC=C(C=C1)SC2=C3C=C(SC3=CN=C2)C(=O)N
# Method in brief: as §1
# [4] = compound: CC1=NC(=CC=C1)C2=C(N=C(N2)C(C)(C)C)C3=CC4=NC=CN=C4C=C3
# Method in brief: as §1
# [5] = compound: CCCCN(Cc1ccc(C(=O)NO)cc1)C(=O)Nc1ccccc1 [Nexturastat A]
# Method in brief: as §1
# [6] = compound: CCCS(=O)(=O)Nc1ccc(F)c(C(=O)c2c[nH]c3ncc(-c4ccc(Cl)cc4)cc23)c1F [vemurafenib]
# Method in brief: as §1
# [7] = compound: CCCS(=O)(=O)Nc1ccc(F)c(C(=O)c2c[nH]c3ncc(Cl)cc23)c1F
# Method in brief: as §1
# [8] = compound: CCCc1cc(C)[nH]c(=O)c1CNC(=O)c1cc(-c2ccnc(N3CCN(C)CC3)c2)cc2c1cnn2C(C)C
# Method in brief: as §1
# [9] = compound: CCN(CC)Cc1ccc2cc(COC(=O)Nc3ccc(C(=O)NO)cc3)ccc2c1 [givinostat]
# Method in brief: as §1
# [10] = compound: CCN(CCCOc1ccc2c(Nc3cc(CC(=O)Nc4cccc(F)c4)[nH]n3)ncnc2c1)CCOP(=O)(O)O [barasertib]
# Method in brief: as §1
# [11] = compound: CC[C@@H]1C(=O)N(C)c2cnc(Nc3ccc(C(=O)NC4CCN(C)CC4)cc3OC)nc2N1C1CCCC1
# Method in brief: as §1
# [12] = compound: CC[C@@H]1C(=O)N(C)c2cnc(Nc3ccc(C(=O)N[C@H]4CC[C@H](N5CCN(CC6CC6)CC5)CC4)cc3OC)nc2N1C(C)C [volasertib]
# Method in brief: as §1
# [13] = compound: CC[C@H](C)N1C=C(C2=C(C=C(C=C21)C3=CN=C(C=C3)N4CCNCC4)C(=O)NCC5=C(C=C(NC5=O)C)C)C
# Method in brief: as §1
# [14] = compound: CC[C@H](C)[C@@H](C(=O)N[C@@H]([C@@H](C)O)C(=O)N[C@@H](CC(C)C)C(=O)[C@]1(CO1)C)NC(=O)[C@H]([C@@H](C)CC)N(C)C(=O)C [epoxomicin]
# Method in brief: as §1
# [15] = compound: CCn1cc(-c2ccnc3[nH]c(-c4cccc(CN(C)C)c4)cc23)c(-c2ccc(NC(=O)N(C)C)cc2)n1
# Method in brief: as §1
# [16] = compound: CN(C)CC(=O)Nc1ccc2[nH]c(=O)c3ccccc3c2c1
# Method in brief: as §1
# [17] = compound: CN1C2=C(C3=C1C(=O)N(N=C3)CC4=CC(=CC=C4)N)SC(=C2)S(=O)C
# Method in brief: as §1
# [18] = compound: CN1CCC(CNc2ccc3ncc(-c4cccc(OC(F)(F)F)c4)n3n2)CC1
# Method in brief: as §1
# [19] = compound: CCn1c(C(=O)N(C2CC2)C2CC2)cc2c3c(ncn3C)c(Nc3cc(C)n(C)n3)nc21
# Method in brief: as §1
# [20] = compound: CN(CCOC1=CC=C(C=C1)C[C@H]2C(=O)NC(=O)S2)C3=CC=CC=N3 (racemic) [rosiglitazone]
# Method in brief: as §1
Target,log2 fold change [1],log2 fold change [2],log2 fold change [3],log2 fold change [4],log2 fold change [5],log2 fold change [6],log2 fold change [7],log2 fold change [8],log2 fold change [9],log2 fold change [10],log2 fold change [11],log2 fold change [12],log2 fold change [13],log2 fold change [14],log2 fold change [15],log2 fold change [16],log2 fold change [17],log2 fold change [18],log2 fold change [19],log2 fold change [20]
SUMO1 (UniProt P63165),inactive: -0.064,inactive: -0.045,inactive: 0.4,inactive: 0.024,inactive: -0.142,inactive: -0.051,active: 0.657,inactive: -0.071,inactive: -0.172,inactive: -0.055,inactive: 0.034,inactive: -0.035,inactive: -0.046,inactive: -0.011,inactive: 0.015,inactive: 0.021,inactive: 0.038,inactive: 0.007,,
SUCLG1 (UniProt P53597),inactive: -0.02,inactive: -0.008,inactive: -0.001,inactive: 0.025,inactive: -0.032,inactive: 0.009,inactive: 0,inactive: -0.006,inactive: -0.102,inactive: 0.019,inactive: 0.008,inactive: -0.044,inactive: 0.063,inactive: 0.031,inactive: -0.012,inactive: -0.027,inactive: -0.041,inactive: -0.097,,
SURF2 (UniProt Q15527),inactive: 0.022,inactive: -0.007,inactive: 0.035,inactive: -0.027,inactive: 0.033,inactive: -0.037,inactive: -0.002,inactive: -0.029,inactive: 0.013,inactive: 0.035,inactive: -0.002,inactive: -0.046,inactive: 0.014,inactive: 0.04,inactive: -0.078,inactive: 0.037,inactive: -0.043,inactive: 0.024,,
SUPT5H (UniProt O00267),inactive: 0.004,inactive: -0.054,inactive: 0.006,inactive: 0.013,inactive: -0.067,inactive: 0.008,inactive: 0.068,inactive: -0.028,inactive: 0.035,inactive: 0.04,inactive: -0.018,active: -0.224,inactive: 0.084,inactive: 0.062,inactive: -0.065,inactive: 0.056,inactive: -0.056,inactive: -0.117,,
TAB2 (UniProt Q9NYJ8),inactive: 0.041,inactive: -0.101,,,inactive: 0.025,inactive: -0.023,,,,,,,,inactive: 0.044,,inactive: 0.177,,,,
TBC1D10B (UniProt Q4KMP7),inactive: -0.019,inactive: 0.015,inactive: 0.025,inactive: 0,inactive: -0.051,inactive: 0.004,inactive: 0.048,inactive: 0.014,inactive: 0.018,inactive: 0.01,inactive: -0.108,inactive: -0.114,inactive: 0.025,inactive: 0.019,inactive: 0.004,inactive: -0.005,inactive: -0.053,inactive: -0.185,,
TAOK1 (UniProt Q7L7X3),inactive: -0.009,inactive: 0.007,inactive: -0.005,inactive: -0.013,inactive: 0.065,inactive: 0.023,inactive: 0.011,inactive: -0.048,inactive: 0.001,inactive: 0.009,inactive: 0.03,inactive: -0.019,inactive: 0.029,inactive: -0.02,inactive: -0.024,inactive: 0,inactive: 0.017,active: -0.262,,
TARS2 (UniProt Q9BW92),inactive: -0.027,inactive: 0.022,inactive: 0.021,inactive: 0.078,inactive: -0.201,inactive: 0.008,inactive: 0.027,inactive: -0.013,active: -0.245,inactive: 0.028,inactive: -0.017,inactive: -0.128,inactive: 0.012,inactive: 0.02,inactive: -0.002,inactive: -0.019,inactive: -0.055,inactive: -0.069,,
TAF4 (UniProt O00268),inactive: 0.019,inactive: 0.022,inactive: 0.088,inactive: 0.024,inactive: -0.143,inactive: -0.054,inactive: 0.027,inactive: 0.04,inactive: 0.031,inactive: 0.03,,inactive: 0.054,,inactive: -0.023,inactive: -0.02,inactive: 0.055,,inactive: 0.029,inactive: -0.12,inactive: -0.077
TANGO6 (UniProt Q9C0B7),inactive: 0.069,inactive: -0.006,inactive: 0.039,inactive: 0.031,inactive: -0.051,,inactive: 0.068,inactive: -0.052,inactive: 0.131,inactive: 0.048,inactive: 0.276,active: -0.375,inactive: 0.052,inactive: 0.035,,,inactive: 0.006,,,
TACC2 (UniProt O95359),inactive: -0.015,inactive: -0.058,inactive: 0.16,,,inactive: 0.032,inactive: -0.054,inactive: -0.085,active: -0.284,inactive: 0.012,inactive: -0.013,inactive: -0.048,inactive: 0.014,,inactive: 0.041,inactive: -0.069,inactive: 0,inactive: -0.044,,
STK4 (UniProt Q13043),inactive: -0.065,inactive: 0.018,inactive: -0.022,inactive: 0.007,inactive: 0.004,inactive: -0.024,inactive: -0.014,inactive: 0.005,inactive: -0.006,inactive: 0.032,inactive: 0.024,inactive: 0.006,inactive: 0.014,inactive: 0.033,inactive: -0.041,inactive: 0.013,inactive: 0.004,inactive: -0.061,,
TAF9B (UniProt Q9HBM6),inactive: -0.102,,inactive: -0.028,inactive: -0.127,inactive: 0.068,inactive: 0.088,inactive: -0.028,inactive: -0.042,inactive: -0.065,inactive: -0.055,,inactive: 0.084,,inactive: 0.041,inactive: -0.027,inactive: -0.054,inactive: -0.012,inactive: -0.104,inactive: 0.043,inactive: 0.073
STXBP2 isoform 3 (UniProt Q15833),inactive: 0,inactive: -0.042,inactive: 0.036,inactive: -0.017,inactive: 0.128,inactive: 0.155,inactive: 0.032,inactive: 0.063,inactive: 0.125,inactive: 0.068,inactive: -0.015,inactive: -0.217,inactive: 0.138,inactive: -0.006,inactive: -0.025,inactive: 0.02,inactive: 0.116,inactive: -0.072,,
SUMO2 (UniProt P61956),inactive: -0.133,inactive: 0.1,inactive: -0.135,inactive: -0.081,,inactive: -0.084,inactive: -0.229,inactive: -0.019,inactive: -0.019,inactive: -0.045,inactive: -0.019,inactive: 0.163,inactive: -0.101,,inactive: 0.018,inactive: -0.113,inactive: 0.086,inactive: -0.025,inactive: 0.04,inactive: -0.104
STK38L (UniProt Q9Y2H1),inactive: -0.044,inactive: 0.165,,inactive: 0.056,inactive: -0.074,inactive: -0.038,,inactive: 0.079,inactive: -0.016,inactive: 0.064,inactive: 0.071,,inactive: -0.011,inactive: 0.071,inactive: -0.015,inactive: -0.045,inactive: -0.029,inactive: 0.016,,
SYNE2 isoform 2 (UniProt Q8WXH0),inactive: -0.084,inactive: 0.014,inactive: 0.064,inactive: -0.131,,inactive: -0.04,inactive: 0,inactive: -0.171,inactive: 0.43,inactive: 0.079,inactive: 0.039,inactive: -0.025,inactive: -0.145,,inactive: -0.274,inactive: -0.044,inactive: -0.021,inactive: -0.025,,
TANK (UniProt Q92844),inactive: -0.076,inactive: 0.059,inactive: 0.007,inactive: 0.028,inactive: -0.047,inactive: -0.031,inactive: -0.018,inactive: 0.065,inactive: 0.013,inactive: 0.089,inactive: 0.057,inactive: -0.105,inactive: -0.064,inactive: -0.021,inactive: 0.074,inactive: -0.012,inactive: -0.117,inactive: -0.072,,
SUGP1 (UniProt Q8IWZ8),inactive: -0.006,inactive: -0.021,inactive: 0.033,inactive: 0.065,inactive: 0.056,inactive: 0.121,inactive: 0.096,inactive: -0.001,inactive: 0.095,inactive: 0.068,inactive: -0.155,active: -0.341,inactive: 0.056,inactive: 0.062,inactive: -0.007,inactive: 0.021,inactive: -0.028,inactive: -0.081,,
SYNJ2 (UniProt O15056),inactive: -0.195,inactive: -0.149,,inactive: -0.028,inactive: 0.202,inactive: -0.056,,inactive: 0.146,inactive: 0.13,inactive: 0.095,,,inactive: 0.06,inactive: -0.05,inactive: -0.011,inactive: 0.045,inactive: -0.243,inactive: -0.098,inactive: -0.122,inactive: -0.037

# Another view of some results above.
Target | log2 fold change [1] | log2 fold change [2] | log2 fold change [3] | log2 fold change [4] | log2 fold change [5] | log2 fold change [6] | log2 fold change [7] | log2 fold change [8] | log2 fold change [9] | log2 fold change [10] | log2 fold change [11] | log2 fold change [12] | log2 fold change [13] | log2 fold change [14] | log2 fold change [15] | log2 fold change [16] | log2 fold change [17] | log2 fold change [18] | log2 fold change [19] | log2 fold change [20]
TBC1D10B (UniProt Q4KMP7) | inactive: -0.019 | inactive: 0.015 | inactive: 0.025 | inactive: 0 | inactive: -0.051 | inactive: 0.004 | inactive: 0.048 | inactive: 0.014 | inactive: 0.018 | inactive: 0.01 | inactive: -0.108 | inactive: -0.114 | inactive: 0.025 | inactive: 0.019 | inactive: 0.004 | inactive: -0.005 | inactive: -0.053 | inactive: -0.185 |  | 
TAOK1 (UniProt Q7L7X3) | inactive: -0.009 | inactive: 0.007 | inactive: -0.005 | inactive: -0.013 | inactive: 0.065 | inactive: 0.023 | inactive: 0.011 | inactive: -0.048 | inactive: 0.001 | inactive: 0.009 | inactive: 0.03 | inactive: -0.019 | inactive: 0.029 | inactive: -0.02 | inactive: -0.024 | inactive: 0 | inactive: 0.017 | active: -0.262 |  | 

# Source: the supplement of paper PMC10849652
